What all share (assay): affinity purification with mass spectrometry; interaction screen: LAP-tagged NCBP1, NCBP2 or NCBP3 captured with anti-GFP beads from cryogrinded HeLa cell powder in six (NCBP1, NCBP2) or four (NCBP3) extraction conditions, against CTRL-LAP; label-free quantification
Experiment [1] has as its target LAP-tagged NCBP1 (Nuclear Cap-Binding Protein 1) (UniProt Q09161).
The target of experiment [2] is T1, LAP-tagged NCBP3 (C17orf85) (UniProt Q53F19).
T1 sequence: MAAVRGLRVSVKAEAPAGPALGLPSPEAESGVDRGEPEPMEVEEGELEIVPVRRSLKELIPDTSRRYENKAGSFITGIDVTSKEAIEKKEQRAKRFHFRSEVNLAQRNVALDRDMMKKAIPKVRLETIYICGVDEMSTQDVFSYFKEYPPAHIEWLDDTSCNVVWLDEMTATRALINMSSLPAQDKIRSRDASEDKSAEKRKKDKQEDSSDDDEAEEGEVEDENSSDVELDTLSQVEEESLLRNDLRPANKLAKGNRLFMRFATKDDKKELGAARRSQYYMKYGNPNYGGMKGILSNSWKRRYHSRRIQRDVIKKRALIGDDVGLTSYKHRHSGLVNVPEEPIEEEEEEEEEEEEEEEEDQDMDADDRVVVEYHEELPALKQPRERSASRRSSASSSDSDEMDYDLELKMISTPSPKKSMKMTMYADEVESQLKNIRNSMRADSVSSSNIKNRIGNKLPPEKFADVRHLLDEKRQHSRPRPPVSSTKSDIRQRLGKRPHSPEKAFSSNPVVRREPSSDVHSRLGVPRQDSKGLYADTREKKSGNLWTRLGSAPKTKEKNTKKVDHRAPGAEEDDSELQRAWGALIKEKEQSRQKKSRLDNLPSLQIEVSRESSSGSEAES

Protein sequences, listed by entry. Tags and fused reporters are not part of them.
UniProt Q9H814: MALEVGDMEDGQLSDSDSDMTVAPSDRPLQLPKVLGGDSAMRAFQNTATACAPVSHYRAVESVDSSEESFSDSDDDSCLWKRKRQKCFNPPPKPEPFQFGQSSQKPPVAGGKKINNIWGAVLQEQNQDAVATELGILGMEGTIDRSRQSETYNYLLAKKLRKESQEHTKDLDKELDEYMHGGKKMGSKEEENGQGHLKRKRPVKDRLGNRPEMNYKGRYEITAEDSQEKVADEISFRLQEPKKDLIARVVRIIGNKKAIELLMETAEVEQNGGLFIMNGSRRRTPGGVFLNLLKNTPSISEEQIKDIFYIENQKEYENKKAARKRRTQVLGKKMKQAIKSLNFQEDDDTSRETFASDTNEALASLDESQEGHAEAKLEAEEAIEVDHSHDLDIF
UniProt Q6NZY4: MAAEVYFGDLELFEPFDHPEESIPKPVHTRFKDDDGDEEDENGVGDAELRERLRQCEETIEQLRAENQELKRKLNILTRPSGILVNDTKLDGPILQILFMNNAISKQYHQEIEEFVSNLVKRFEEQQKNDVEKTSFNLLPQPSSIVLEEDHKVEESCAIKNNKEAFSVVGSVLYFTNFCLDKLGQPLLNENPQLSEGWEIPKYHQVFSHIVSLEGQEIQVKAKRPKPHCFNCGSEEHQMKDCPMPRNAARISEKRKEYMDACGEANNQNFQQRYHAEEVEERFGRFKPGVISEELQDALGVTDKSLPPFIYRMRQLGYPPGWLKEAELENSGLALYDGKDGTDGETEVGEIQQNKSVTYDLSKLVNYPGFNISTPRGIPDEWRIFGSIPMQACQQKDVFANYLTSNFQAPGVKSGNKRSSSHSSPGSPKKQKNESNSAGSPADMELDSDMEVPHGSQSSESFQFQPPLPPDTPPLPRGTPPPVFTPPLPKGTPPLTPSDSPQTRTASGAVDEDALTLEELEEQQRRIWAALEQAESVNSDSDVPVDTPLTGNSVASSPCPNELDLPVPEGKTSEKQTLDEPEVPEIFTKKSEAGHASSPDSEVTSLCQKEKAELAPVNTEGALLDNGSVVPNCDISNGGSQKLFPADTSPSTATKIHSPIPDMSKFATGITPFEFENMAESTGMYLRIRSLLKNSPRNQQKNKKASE

Experiment [3] concerns the target T2, LAP-tagged NCBP2 (Nuclear Cap-Binding Protein 2) (UniProt P52298).
T2 sequence: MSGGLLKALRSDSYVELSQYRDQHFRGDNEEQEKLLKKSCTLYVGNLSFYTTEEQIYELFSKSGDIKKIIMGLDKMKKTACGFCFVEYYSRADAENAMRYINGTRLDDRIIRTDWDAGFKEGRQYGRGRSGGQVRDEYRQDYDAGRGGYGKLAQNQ

The target of experiment [4] is T3, LAP-tagged NCBP1 (Nuclear Cap-Binding Protein 1), Q09161.
T3 chain: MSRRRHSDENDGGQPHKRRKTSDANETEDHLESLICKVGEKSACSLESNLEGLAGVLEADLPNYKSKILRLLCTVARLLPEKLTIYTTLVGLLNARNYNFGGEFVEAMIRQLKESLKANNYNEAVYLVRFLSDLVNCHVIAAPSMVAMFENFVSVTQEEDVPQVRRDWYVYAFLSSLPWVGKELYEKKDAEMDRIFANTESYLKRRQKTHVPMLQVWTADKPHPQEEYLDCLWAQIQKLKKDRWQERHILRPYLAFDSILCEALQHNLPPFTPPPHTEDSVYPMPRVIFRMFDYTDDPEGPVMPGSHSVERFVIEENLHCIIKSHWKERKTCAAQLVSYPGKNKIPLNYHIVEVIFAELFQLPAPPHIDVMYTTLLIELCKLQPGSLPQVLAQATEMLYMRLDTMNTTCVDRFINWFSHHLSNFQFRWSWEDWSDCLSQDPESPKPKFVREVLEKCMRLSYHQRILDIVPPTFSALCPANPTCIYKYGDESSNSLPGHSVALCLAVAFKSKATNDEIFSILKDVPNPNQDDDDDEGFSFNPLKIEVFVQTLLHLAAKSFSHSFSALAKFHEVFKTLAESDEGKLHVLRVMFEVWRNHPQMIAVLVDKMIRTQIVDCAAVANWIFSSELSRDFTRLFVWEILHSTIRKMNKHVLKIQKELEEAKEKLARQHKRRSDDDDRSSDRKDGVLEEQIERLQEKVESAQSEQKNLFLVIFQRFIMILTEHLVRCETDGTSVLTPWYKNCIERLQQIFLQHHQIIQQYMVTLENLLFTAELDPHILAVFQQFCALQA
The settings on record: remark: other sources report otherwise.

The target of experiment [5] is T4, LAP-tagged NCBP2 (Nuclear Cap-Binding Protein 2), P52298.
T4 chain: T2 sequence
To be noted: remark: other sources report otherwise.

These are yes or no findings as the source states them, for the method shown. Binding seen in cells or lysates may run through a third protein. Here binding means that the protein was enriched with, or labelled near, the bait; the list need not be complete. For some of these results: No binding means not detected with the bait. For some of these results: Where a sequence is shown, tags or fusion partners need not be part of it.

For the molecule PHAX (from UniProt Q9H814 1-394), the binding entry was “binds” in experiment [1], “no binding” in experiment [2] and “binds” in experiment [3].
On to ZCCHC8 (from UniProt Q6NZY4 1-707), for which the values for the binding entry in experiment [1], in experiment [2] and in experiment [3] were “binds”, “no binding” and “binds”, respectively.
With “Nuclear Cap-Binding Protein 1 (NCBP1) (from UniProt Q09161 1-790)”, the binding result in experiment [3] was “binds”.

B1: ZC3H18, Q86VM9 1-953 (protein)
chain: MDVAESPERDPHSPEDEEQPQGLSDDDILRDSGSDQDLDGAGVRASDLEDEESAARGPSQEEEDNHSDEEDRASEPKSQDQDSEVNELSRGPTSSPCEEEGDEGEEDRTSDLRDEASSVTRELDEHELDYDEEVPEEPAPAVQEDEAEKAGAEDDEEKGEGTPREEGKAGVQSVGEKESLEAAKEKKKEDDDGEIDDGEIDDDDLEEGEVKDPSDRKVRPRPTCRFFMKGNCTWGMNCRFIHPGVNDKGNYSLITKADPFPPNGAPPLGPHPLMPANPWGGPVVDEILPPPPPEPPTESAWERGLRHAKEVLKKATIRKEQEPDFEEKRFTVTIGEDEREFDKENEVFRDWNSRIPRDVRDTVLEPYADPYYDYEIERFWRGGQYENFRVQYTETEPYHNYRERERERERENRQRERERERERDRERERRQRERERERERERDKERQRRKEEWERERAKRDEKDRQHRDRDREKEREKEKGKPKPRSPQPPSRQAEPPKKEAATTGPQVKRADEWKDPWRRSKSPKKKLGVSVSPSRARRRRKTSASSASASNSSRSSSRSSSYSGSGSSRSRSRSSSYSSYSSRSSRHSSFSGSRSRSRSFSSSPSPSPTPSPHRPSIRTKGEPAPPPGKAGEKSVKKPAPPPAPPQATKTTAPVPEPTKPGDPREARRKERPARTPPRRRTLSGSGSGSGSSYSGSSSRSRSLSVSSVSSVSSATSSSSSAHSVDSEDMYADLASPVSSASSRSPAPAQTRKEKGKSKKEDGVKEEKRKRDSSTQPPKSAKPPAGGKSSQQPSTPQQAPPGQPQQGTFVAHKEIKLTLLNKAADKGSRKRYEPSDKDRQSPPPAKRPNTSPDRGSRDRKSGGRLGSPKPERQRGQNSKAPAAPADRKRQLSPQSKSSSKVTSVPGKASDPGAASTKSGKASTLSRREELLKQLKAVEDAIARKRAKIPGKA
Regarding B1, the binding result in experiment [4] and in experiment [5] was “binds” throughout.

B2: ZC3H18 (protein, UniProt Q86VM9 1-953)
chain: B1 chain
With B2, the binding entry in experiment [2] is reported as “no binding”.

B3: ARS2/SRRT (protein, UniProt Q9BXP5 1-876)
chain: MGDSDDEYDRRRRDKFRRERSDYDRSRERDERRRGDDWNDREWDRGRERRSRGEYRDYDRNRRERFSPPRHELSPPQKRMRRDWDEHSSDPYHSGYEMPYAGGGGGPTYGPPQPWGHPDVHIMQHHVLPIQARLGSIAEIDLGVPPPVMKTFKEFLLSLDDSVDETEAVKRYNDYKLDFRRQQMQDFFLAHKDEEWFRSKYHPDEVGKRRQEARGALQNRLRVFLSLMETGWFDNLLLDIDKADAIVKMLDAAVIKMEGGTENDLRILEQEEEEEQAGKPGEPSKKEEGRAGAGLGDGERKTNDKDEKKEDGKQAENDSSNDDKTKKSEGDGDKEEKKEDSEKEAKKSSKKRNRKHSGDDSFDEGSVSESESESESGQAEEEKEEAEEALKEKEKPKEEEWEKPKDAAGLECKPRPLHKTCSLFMRNIAPNISRAEIISLCKRYPGFMRVALSEPQPERRFFRRGWVTFDRSVNIKEICWNLQNIRLRECELSPGVNRDLTRRVRNINGITQHKQIVRNDIKLAAKLIHTLDDRTQLWASEPGTPPLPTSLPSQNPILKNITDYLIEEVSAEEEELLGSSGGAPPEEPPKEGNPAEINVERDEKLIKVLDKLLLYLRIVHSLDYYNTCEYPNEDEMPNRCGIIHVRGPMPPNRISHGEVLEWQKTFEEKLTPLLSVRESLSEEEAQKMGRKDPEQEVEKFVTSNTQELGKDKWLCPLSGKKFKGPEFVRKHIFNKHAEKIEEVKKEVAFFNNFLTDAKRPALPEIKPAQPPGPAQILPPGLTPGLPYPHQTPQGLMPYGQPRPPILGYGAGAVRPAVPTGGPPYPHAPYGAGRGNYDAFRGQGGYPGKPRNRMVRGDPRAIVEYRDLDAPDDVDFF
Take B3: the binding entry in experiment [1] and in experiment [3] was “binds” in each case.

B4: RNPS1 (protein, UniProt Q15287 1-305)
chain: MDLSGVKKKSLLGVKENNKKSSTRAPSPTKRKDRSDEKSKDRSKDKGATKESSEKDRGRDKTRKRRSASSGSSSTRSRSSSTSSSGSSTSTGSSSGSSSSSASSRSGSSSTSRSSSSSSSSGSPSPSRRRHDNRRRSRSKSKPPKRDEKERKRRSPSPKPTKVHIGRLTRNVTKDHIMEIFSTYGKIKMIDMPVERMHPHLSKGYAYVEFENPDEAEKALKHMDGGQIDGQEITATAVLAPWPRPPPRRFSPPRRMLPPPPMWRRSPPRMRRRSRSPRRRSPVRRRSRSPGRRRHRSRSSSNSSR
B4: in experiment [2], the binding result was “binds”.

Source of the values: paper PMC7544205.
